# Data taken from US8653083B2, “Hedgehog pathway antagonists to treat disease” (The Johns Hopkins University, priority 2005, dated 2014).
# Entries after “also recorded” stand apart in the source; their conditions may differ. For at least one compound, name, drawing or mass did not settle the structure.
# System: 22RV1 xenografts
# Assay: 22RV1 human prostate cancer xenografts in athymic mice, tumor growth
# Format: in vivo
smiles,measurement,setting,value
"CCC(C)n1ncn(-c2ccc(N3CCN(c4ccc(OCC5COC(Cn6cncn6)(c6ccc(Cl)cc6Cl)O5)cc4)CC3)cc2)c1=O (racemic) [Itraconazole, (±)-cis-4-[4-[4-[4-[[2-(2,4-dichlorophenyl)-2-(1H-1,2,4-triazol-1-yl-methyl)-1,3-dioxolan-4-yl)methoxy]phenyl]-1-piperazinyl]phenyl]-2,4-dihydro-2-(1-methylpropyl)-3H-1,2,4-triazol-3-one]",tumor growth of established xenografts,"itraconazole 25 mg/kg, in comparison to control treatment",only slowed tumor growth; also recorded: slows growth
same,tumor growth of established xenografts,itraconazole 37.5 mg/kg,complete and durable regression
